The target of this test is biotinylated human Exonuclease 1 (EXO1) (human) (UniProt Q9UQ84). Kind of test: pull-down.

Chains of the proteins cited; added tags and fusions are not shown.
UniProt Q9UQ84: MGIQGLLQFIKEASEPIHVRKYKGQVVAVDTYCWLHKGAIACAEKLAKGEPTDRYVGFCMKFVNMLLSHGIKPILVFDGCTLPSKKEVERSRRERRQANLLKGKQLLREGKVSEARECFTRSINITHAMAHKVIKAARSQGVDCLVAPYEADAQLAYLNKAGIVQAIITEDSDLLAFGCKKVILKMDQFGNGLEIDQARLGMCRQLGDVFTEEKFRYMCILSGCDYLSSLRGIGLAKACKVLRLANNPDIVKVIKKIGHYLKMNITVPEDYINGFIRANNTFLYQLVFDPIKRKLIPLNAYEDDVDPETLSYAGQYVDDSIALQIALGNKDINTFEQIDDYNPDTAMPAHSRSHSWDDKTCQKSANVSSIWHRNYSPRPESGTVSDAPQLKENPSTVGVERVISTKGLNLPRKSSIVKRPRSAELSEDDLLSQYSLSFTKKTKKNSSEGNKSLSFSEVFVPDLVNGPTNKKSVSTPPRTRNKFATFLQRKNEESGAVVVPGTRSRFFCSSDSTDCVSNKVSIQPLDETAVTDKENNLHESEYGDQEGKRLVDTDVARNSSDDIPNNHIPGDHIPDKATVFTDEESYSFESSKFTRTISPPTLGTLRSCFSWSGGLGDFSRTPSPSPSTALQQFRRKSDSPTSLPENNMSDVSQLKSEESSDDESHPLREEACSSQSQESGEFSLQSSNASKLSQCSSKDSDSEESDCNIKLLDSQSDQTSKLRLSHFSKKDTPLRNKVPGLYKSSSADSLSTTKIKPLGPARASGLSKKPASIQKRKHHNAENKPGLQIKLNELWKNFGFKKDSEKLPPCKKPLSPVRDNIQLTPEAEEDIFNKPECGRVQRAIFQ
UniProt P54132: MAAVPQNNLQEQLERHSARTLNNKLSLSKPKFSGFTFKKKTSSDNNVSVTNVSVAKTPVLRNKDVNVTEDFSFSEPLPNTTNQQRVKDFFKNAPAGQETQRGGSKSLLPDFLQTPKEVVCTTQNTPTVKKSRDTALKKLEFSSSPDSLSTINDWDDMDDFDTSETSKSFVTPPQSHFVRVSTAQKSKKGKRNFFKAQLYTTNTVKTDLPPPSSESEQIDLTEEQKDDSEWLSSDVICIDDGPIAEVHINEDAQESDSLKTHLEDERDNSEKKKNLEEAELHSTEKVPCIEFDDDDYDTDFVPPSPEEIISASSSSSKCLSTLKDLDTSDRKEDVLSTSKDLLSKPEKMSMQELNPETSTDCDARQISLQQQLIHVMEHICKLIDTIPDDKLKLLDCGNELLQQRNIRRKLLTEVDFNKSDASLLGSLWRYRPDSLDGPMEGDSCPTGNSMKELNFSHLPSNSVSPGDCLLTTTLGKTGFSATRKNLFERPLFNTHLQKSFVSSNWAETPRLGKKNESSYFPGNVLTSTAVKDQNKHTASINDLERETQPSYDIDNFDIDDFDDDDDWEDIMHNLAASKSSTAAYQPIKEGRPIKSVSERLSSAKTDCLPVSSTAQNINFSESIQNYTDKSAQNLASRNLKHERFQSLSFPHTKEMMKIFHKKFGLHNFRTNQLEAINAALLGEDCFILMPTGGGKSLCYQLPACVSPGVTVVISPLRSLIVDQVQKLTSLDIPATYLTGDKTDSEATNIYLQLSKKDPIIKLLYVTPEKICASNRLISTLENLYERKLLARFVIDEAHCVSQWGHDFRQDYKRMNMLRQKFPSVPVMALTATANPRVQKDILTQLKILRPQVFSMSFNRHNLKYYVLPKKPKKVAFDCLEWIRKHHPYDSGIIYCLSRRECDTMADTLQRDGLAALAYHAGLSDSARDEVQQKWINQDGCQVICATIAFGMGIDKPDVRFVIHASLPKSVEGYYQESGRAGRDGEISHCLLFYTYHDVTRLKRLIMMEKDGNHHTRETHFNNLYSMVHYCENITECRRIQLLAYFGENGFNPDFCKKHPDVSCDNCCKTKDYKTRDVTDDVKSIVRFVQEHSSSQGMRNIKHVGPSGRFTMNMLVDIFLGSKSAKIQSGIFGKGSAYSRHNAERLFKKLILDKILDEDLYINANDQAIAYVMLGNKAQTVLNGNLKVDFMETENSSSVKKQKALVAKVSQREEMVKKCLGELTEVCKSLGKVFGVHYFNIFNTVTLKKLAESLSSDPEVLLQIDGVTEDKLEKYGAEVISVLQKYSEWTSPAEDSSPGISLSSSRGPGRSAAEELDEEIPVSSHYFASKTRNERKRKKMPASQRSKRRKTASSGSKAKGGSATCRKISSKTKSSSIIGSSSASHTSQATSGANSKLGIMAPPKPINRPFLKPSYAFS

No constants are given. Whether binding was seen depends on the method and setting. Some results given as binding are weak or reduced against the parent protein; the word gives no strength.

Consider “FLAG-BLM (Bloom's Syndrome helicase) (from UniProt P54132 1-1417) (enzyme)”, for which the binding result is reported as “binds”.

Source of the values: doi:10.1101/517771.
